Data: PubChem BioAssay AID1439 (NMMLSC, 2008)
Screen size: about 220,000 compounds; about 770 (0.35%) were called active. This list was built around the results that the source calls inconclusive (neither active nor inactive); the mix of calls is not that of the screen. Rule as the data show it: active = binding response below about 49% or above about 150%; inconclusive = no clear call, values can overlap the other calls; inactive = in between.

Protein sequences, listed by entry. Tags and fused reporters are not part of them.
UniProt P09471, whole entry, looked up: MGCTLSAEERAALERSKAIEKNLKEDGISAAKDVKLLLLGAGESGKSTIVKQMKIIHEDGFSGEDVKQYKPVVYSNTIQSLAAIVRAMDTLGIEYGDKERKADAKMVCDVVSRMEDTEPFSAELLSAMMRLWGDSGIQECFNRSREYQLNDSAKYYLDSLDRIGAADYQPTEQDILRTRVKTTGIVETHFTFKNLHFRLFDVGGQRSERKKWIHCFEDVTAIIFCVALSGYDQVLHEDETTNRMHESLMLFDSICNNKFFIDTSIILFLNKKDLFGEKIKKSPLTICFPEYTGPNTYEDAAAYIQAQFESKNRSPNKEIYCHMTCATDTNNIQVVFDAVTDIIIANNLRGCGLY

Molecular target: Guanine nucleotide-binding protein G(o) subunit alpha (Homo sapiens) (UniProt P09471)
Assay: RGS7-Galphao binding modulators, primary screen, biochemical, multiplexed bead flow cytometry (AID 1439);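 also: fluorescent Galphao held in activated GDP-AlF4 state binding bead-coupled RGS7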
Conditions: at 10 µM, actives lie on both sides

| Structure (SMILES) | binding response (% of control) |
| --- | --- |
| O=C(NNc1nc(-c2ccccc2)c2cc(Br)ccc2n1)c1ccc(S(=O)(=O)N2CCOCC2)cc1 | inactive: 103% |
| C/C(CC(=O)Nc1ccc(Cl)cn1)=N\NC(=O)Cc1cccs1 | inconclusive: 78.7% |
| Nc1nc(NCc2ccc(Cl)cc2)nc(NCCO)c1[N+](=O)[O-] | inconclusive: 169% |
| Cc1ccc(S(=O)(=O)Oc2ccccc2/C=C2/SC(=O)NC2=O)cc1 | inconclusive: 80.4% |
| CCOC(=O)c1cc2c(ccn2C)n1CC(=O)N(CC)CC | inactive: 99.1% |
| Cc1nn(CC(=O)O)c(=O)c2ccccc12 | inactive: 108% |
| COC(=O)[C@@H]1C[C@H]2CC[C@H](O)C[C@H]2N1Cc1ccc(C(F)(F)F)cc1 | inconclusive: 94.3% |
| CCC1=C(OC(=O)N(CC)CC)N2C(=O)OC(=NCC3CC3)[C@]2(Cc2ccccc2)[C@H]2C1=CC[C@H]1C(=O)N(C)C(=O)[C@H]12 | inconclusive: 44.7% |
| CC(=O)N/C(=C\c1ccc(F)cc1)C(=O)NC(C(=O)O)C(C)C (centres undefined) | inconclusive: 120% |
| Cc1nnc(-c2ccc(N3CCCCCC3)c([N+](=O)[O-])c2)o1 | inconclusive: 80% |
| C=CCn1c(SCC(=O)Nc2ncc(Cc3cc(Cl)ccc3Cl)s2)nnc1-c1ccncc1 | inactive: 99.7% |
| C/C=C/C=C/C(=O)OC(C)C(=O)Nc1cc([N+](=O)[O-])ccc1OC (centres undefined) | inconclusive: 75.5% |
| Cc1cc(C)n(C(=O)c2c([N+](=O)[O-])c(C)nn2C)n1 | inactive: 96.3% |
| O=C(O)C/C(=C\c1cccc(NC(=O)c2ccccc2Cl)c1)c1nc2ccccc2s1 | inconclusive: 67.9% |
| O=C(O)CCCC(=O)Nc1ccc(-n2ccc(C(F)(F)F)n2)cc1 | inconclusive: 110% |
| Nc1nc2c(c(=O)[nH]1)C(c1cccc3ccccc13)C1=C(N2)c2ccccc2C1=O (centres undefined) | inactive: 102% |
| CC1(OC(=O)CCc2ccccc2)C(=O)C=C2C=C(c3ccc(C#N)cc3)N(CCc3ccccn3)C=C2C1=O (centres undefined) | inconclusive: 90.5% |
| O=[N+]([O-])c1cccc2c3c([nH]c12)CCCC3 | inconclusive: 129% |
| C=CCNC(=O)CSc1nnc(C(CC)N(C)C)n1C1CCCCC1 (centres undefined) | inconclusive: 101% |
| O=C(NNS(=O)(=O)c1ccccc1Cl)c1nn(-c2ccc(F)cc2)ccc1=O | inconclusive: 171% |
| COc1ccc(C(=O)/C=C/Nc2ccc(S(=O)(=O)Nc3onc(C)c3C)cc2)cc1 | inactive: 103% |
| Cc1nn(C(C)C(=O)O)c(=O)c2ccccc12 (centres undefined) | inactive: 95.3% |

A second format for part of the listing above:
Structure (SMILES)	binding response (% of control)
O=C(NNc1nc(-c2ccccc2)c2cc(Br)ccc2n1)c1ccc(S(=O)(=O)N2CCOCC2)cc1	inactive: 103%
C/C(CC(=O)Nc1ccc(Cl)cn1)=N\NC(=O)Cc1cccs1	inconclusive: 78.7%

(cont.)

| Structure (SMILES) | binding response (% of control) |
| --- | --- |
| CN1N=C2c3ccccc3CCC2C1c1ccc(Cl)cc1 (centres undefined) | inconclusive: 84% |
| CCCCC(=O)Nc1ccc(NC(=S)NC(=O)c2ccco2)cc1OC | inconclusive: 83.7% |
| Cc1ccc(NC(=O)CSc2nnc([C@H](C)NC(=O)OC(C)(C)C)o2)c(C)c1 | inconclusive: 62.6% |
| Fc1ccc(NC(=S)Nc2ccc(Cl)cc2)cc1 | inconclusive: 110% |
| COc1ccc(C(=O)OCc2cc3cccc(C)c3[nH]c2=O)cc1 | inactive: 90.2% |
| O=C(O)CSc1ncnc2scc(-c3ccccc3)c12 | inconclusive: 93.5% |
| CCC(NS(=O)(=O)c1cnn(CC)c1)c1ccccc1 (centres undefined) | inconclusive: 125% |
| CN(C)C(=O)CSc1nc2ccc(N3C(=O)c4ccccc4C3=O)cc2s1 | inconclusive: 39.5% |
| CCC(CC)Nc1ccc(C(CC(N)=O)NC(=O)Cc2ccc(Br)cc2)cc1[N+](=O)[O-] (centres undefined) | inconclusive: 102% |
| COc1cc(C(=O)O)cc(NC(=O)c2ccco2)c1OC | inconclusive: -31.4% |
| C#CC[N+](CC)(CC)CC#Cc1ccccc1 | inconclusive: 94.3% |
| O=C(Nc1nccs1)c1cc(Cl)nc2ccccc12 | inconclusive: 77.4% |
| CC1CCC/C(=C\Nc2ccc(C(=O)O)c(O)c2)C1=O (centres undefined) | inconclusive: 1.47% |
| CCn1c(N2CCN(CC(=O)c3c(C)n(C)c4ccc(OC)cc34)CC2)nc2c1c(=O)[nH]c(=O)n2C | inconclusive: 124% |
| CNC(=S)NNC(=O)c1ccc(=O)n(Cc2cccc(C(F)(F)F)c2)c1 | inconclusive: 96% |
| CNC(=O)COc1ccc(S(=O)(=O)Nc2ccc(C)cc2)cc1 | inconclusive: 93.1% |
| O=c1c2cc(NC(=S)N3CCCC3)ccc2nc2n1CCCCC2 | inconclusive: 112% |
| COc1cc2c(cc1OC)CN(C(=O)c1sc(-c3cnccn3)nc1C)CC2 | inconclusive: -16.5% |
| COc1cc2c(-c3ccc(O)cc3)nc3c(c(C)nn3-c3ccccc3)c2cc1OC | inactive: 89.3% |
| CCc1ccc(N2CN(CCc3ccccc3)CNC2=S)cc1 | inconclusive: 122% |
| COc1ccccc1OP(=O)(O)Oc1ccccc1OC | inconclusive: 99.8% |
| Cc1nn(CC2CC2)c(=O)n1-c1ccc(C(C)C)cc1 | inconclusive: 99.2% |
